Reference: publication PMC7819943, “Rice protein-binding microarrays: a tool to detect cis-acting elements near promoter regions in rice”
Some of the results follow.

target: T1, OsSMF1 (Oryza sativa, UniProt Q6ZLB0 1-436); assay: protein-binding microarray (RPBM); PBS, 2% BSA, 51.3 ng/ul salmon testes DNA, 50 uM zinc acetate, 200 nM TF, 25 C, 1 h; high values mean tight binding; settings: protein: recombinant; tags: N-terminal polyhistidine and DsRed monomer fusion (pET32a); chain copies: 2; label: CyDye5-dUTP incorporated in the synthesized complementary strand; 3' TTTTT single-stranded linker to array surface; dsDNA, one strand shown
T1 sequence: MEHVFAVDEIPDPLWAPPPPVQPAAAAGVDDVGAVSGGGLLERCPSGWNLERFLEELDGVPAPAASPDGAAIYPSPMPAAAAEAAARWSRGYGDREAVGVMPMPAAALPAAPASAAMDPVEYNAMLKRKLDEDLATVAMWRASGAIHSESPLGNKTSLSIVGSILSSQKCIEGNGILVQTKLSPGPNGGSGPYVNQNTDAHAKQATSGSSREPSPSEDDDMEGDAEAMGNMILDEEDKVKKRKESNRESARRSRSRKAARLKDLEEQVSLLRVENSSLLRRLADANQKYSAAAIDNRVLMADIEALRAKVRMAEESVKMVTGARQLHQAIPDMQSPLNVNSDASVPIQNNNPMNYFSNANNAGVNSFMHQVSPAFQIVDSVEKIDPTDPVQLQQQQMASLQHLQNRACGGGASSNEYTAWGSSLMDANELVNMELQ
In short: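 In PBS with 2% BSA, salmon testes DNA and 50 µM zinc acetate, 200 nM protein was incubated on a custom Agilent array at 25 °C for 1 h and then washed off. The array had been made double-stranded by primer extension with Cy5-dUTP and blocked with 2% BSA. The proteins were transcription factors fused N-terminally to polyhistidine and DsRed, expressed in E. coli BL21-CodonPlus and purified on Ni–NTA. The binding signal is per-feature fluorescence intensity (arbitrary units) from an Axon 4000B scanner.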

Row | Sequence | binding signal
1 | CGATAATGACACGGAATTATCTTACTAAGCCCGGATTAATCGGAGTCACCTAGTGCAG | 3290 fluorescence intensity (a.u.)
2 | GCACATATCAGGTATGACATCATCAATGGAAGTCCAACAGCGGAGTCACCTAGTGCAG | 10700 fluorescence intensity (a.u.)
3 | CAGGTGAGGAGGAAGTCGCCGCCGCGGTCCCGGTCGCGGGCGGAGTCACCTAGTGCAG | 31600 fluorescence intensity (a.u.)
4 | TACTGCCAATTGACACGTTCCAACTCTAGCTTCTTTCCTGCGGAGTCACCTAGTGCAG | 27600 fluorescence intensity (a.u.)
5 | TGCAGCCCACCTATGAGTAAGCAAAAGTGTGCGGCCCTCCCGGAGTCACCTAGTGCAG | 4440 fluorescence intensity (a.u.)
6 | GTGCATGGCTTACGTGCGGTGCACTACCACGGCGGCAGCCCGGAGTCACCTAGTGCAG | 4050 fluorescence intensity (a.u.)
7 | CAGGCACGGTGGTCGGCGTCATGCGGGGCTGCTCGGCTAGCGGAGTCACCTAGTGCAG | 3420 fluorescence intensity (a.u.)
8 | TTTCCTTTATTAGCTCAGCAAGAGCAGCTCTAGCGTGGCACGGAGTCACCTAGTGCAG | 4470 fluorescence intensity (a.u.)
9 | AACTGCTATATAAATTGTTGCCACCACGCAGCGACAGGTGCGGAGTCACCTAGTGCAG | 4220 fluorescence intensity (a.u.)
10 | AGTTGCTGACATGTGAGCCCCACTTGCTAACTCAGCAAAGCGGAGTCACCTAGTGCAG | 4650 fluorescence intensity (a.u.)
11 | AGAGAGTGGCTGAGGTGAGCTGTGTAGGGTGGGGTTTCCGCGGAGTCACCTAGTGCAG | 3740 fluorescence intensity (a.u.)
12 | CCATATGGCCATCTATACGCTCATCCACTGGCACGTCATCCGGAGTCACCTAGTGCAG | 9890 fluorescence intensity (a.u.)
13 | TACCCGGGACGTGACACGTCACCATTATTCTGTTGTCAACCGGAGTCACCTAGTGCAG | 13700 fluorescence intensity (a.u.)
14 | AGCATCCGAATCCGGCCACCTCATCATCTCGCCTCGCTTCCGGAGTCACCTAGTGCAG | 7340 fluorescence intensity (a.u.)
15 | TTAATCGTCCACACGTCACTCTCCTTTGATCCGAAGCTCACGGAGTCACCTAGTGCAG | 15600 fluorescence intensity (a.u.)
16 | AGGGACCCAAACCGACCAGTCACCAACTCACCATCCACCCCGGAGTCACCTAGTGCAG | 3850 fluorescence intensity (a.u.)
17 | TAGGCTGGTGTTGATGTTCTTTGATTCGGTATAAATCAATCGGAGTCACCTAGTGCAG | 3290 fluorescence intensity (a.u.)
18 | CCGAATTATGGAGATCCACGGACACCCATGCTCCCACGTGCGGAGTCACCTAGTGCAG | 3170 fluorescence intensity (a.u.)
19 | ACTGTATACTCCCCAAATTCCGTCATGGCGATGGCACTGTCGGAGTCACCTAGTGCAG | 3550 fluorescence intensity (a.u.)
20 | AACAGGATCCATACTGTTTAACTACATATCTTGGAATCTACGGAGTCACCTAGTGCAG | 4920 fluorescence intensity (a.u.)
21 | CGGGCACCGTGATGTAATAGTAATACCACGCCGAATACACCGGAGTCACCTAGTGCAG | 3150 fluorescence intensity (a.u.)

Shown with tabs: part of the list above.
Row	Sequence	binding signal
4	TACTGCCAATTGACACGTTCCAACTCTAGCTTCTTTCCTGCGGAGTCACCTAGTGCAG	27600 fluorescence intensity (a.u.)
6	GTGCATGGCTTACGTGCGGTGCACTACCACGGCGGCAGCCCGGAGTCACCTAGTGCAG	4050 fluorescence intensity (a.u.)
8	TTTCCTTTATTAGCTCAGCAAGAGCAGCTCTAGCGTGGCACGGAGTCACCTAGTGCAG	4470 fluorescence intensity (a.u.)
12	CCATATGGCCATCTATACGCTCATCCACTGGCACGTCATCCGGAGTCACCTAGTGCAG	9890 fluorescence intensity (a.u.)
17	TAGGCTGGTGTTGATGTTCTTTGATTCGGTATAAATCAATCGGAGTCACCTAGTGCAG	3290 fluorescence intensity (a.u.)
18	CCGAATTATGGAGATCCACGGACACCCATGCTCCCACGTGCGGAGTCACCTAGTGCAG	3170 fluorescence intensity (a.u.)
20	AACAGGATCCATACTGTTTAACTACATATCTTGGAATCTACGGAGTCACCTAGTGCAG	4920 fluorescence intensity (a.u.)
21	CGGGCACCGTGATGTAATAGTAATACCACGCCGAATACACCGGAGTCACCTAGTGCAG	3150 fluorescence intensity (a.u.)

More entries:

Row | Sequence | binding signal
22 | TTTTCCTTGTAACGAACATCTCATCATCATCATCAGCTGACGGAGTCACCTAGTGCAG | 5290 fluorescence intensity (a.u.)
23 | GTGGCCTGCTCCCGCGTCGCAGCCACCGCCGCCACCTCGTCGGAGTCACCTAGTGCAG | 3540 fluorescence intensity (a.u.)
24 | TTGTTTTGTAAAGCACGTCATCACTATTTAGGTGGAATATCGGAGTCACCTAGTGCAG | 11200 fluorescence intensity (a.u.)
25 | TGAGCCCATGTATCGAGAGATGATCATCATATGACGACGTCGGAGTCACCTAGTGCAG | 3770 fluorescence intensity (a.u.)
26 | AAGCGACGGATATCGGGAGTCGAACGTCCCTCTGACGTAGCGGAGTCACCTAGTGCAG | 5310 fluorescence intensity (a.u.)
27 | GCGCATGACAACCCGCGCCACGCGCACACGCACACCCACCCGGAGTCACCTAGTGCAG | 4530 fluorescence intensity (a.u.)
28 | ATCCCTCCCTACCCACACCTCATCAGGTATTCTGCTTTATCGGAGTCACCTAGTGCAG | 3520 fluorescence intensity (a.u.)
29 | CAGTTCTTAAACTTGTAAAGTTGTGTCATATACCACATTACGGAGTCACCTAGTGCAG | 39600 fluorescence intensity (a.u.)
30 | CCTCCTCCTCCTCCTCCACGCTTCCGCAAATTTCCGATCTCGGAGTCACCTAGTGCAG | 3780 fluorescence intensity (a.u.)
31 | TATATAAGCCTCACCAGAACTGACATATGCTGAGTCTGCACGGAGTCACCTAGTGCAG | 3350 fluorescence intensity (a.u.)
32 | ACATATATAATGGCAGTGTGGCGTGCGGTGCGTGGGTGGTCGGAGTCACCTAGTGCAG | 3280 fluorescence intensity (a.u.)
33 | AGAGAGAATGACATGTGGGTCCCACATGCTGACTCAACGGCGGAGTCACCTAGTGCAG | 10900 fluorescence intensity (a.u.)
34 | CGTGTTGTTCTTATATACGTGTTCTAAAAGTTGACGAGCGCGGAGTCACCTAGTGCAG | 3930 fluorescence intensity (a.u.)
35 | GGCGCACCGTCACGAACCGCATCGGTCCAGCGAGCTATCACGGAGTCACCTAGTGCAG | 3560 fluorescence intensity (a.u.)
36 | TGATCCTCATGTGCAGTTGAGTCACTGATATGTGGACCACCGGAGTCACCTAGTGCAG | 5990 fluorescence intensity (a.u.)
37 | GATTGTTTAGTGGCCCGTATCATAAGACCGGCCACGTCGTCGGAGTCACCTAGTGCAG | 6910 fluorescence intensity (a.u.)
38 | GAGATTATTCACAGGTAGCATGACGCACCACAATCTCCGCCGGAGTCACCTAGTGCAG | 5320 fluorescence intensity (a.u.)
39 | GAGATATATCCAGATTCATCTCCATACCGTGTCTCTAGATCGGAGTCACCTAGTGCAG | 3160 fluorescence intensity (a.u.)
40 | CACCTCTGCCGCTGCTCCAAATCGTGTCACTGCTCCTCACCGGAGTCACCTAGTGCAG | 6340 fluorescence intensity (a.u.)
41 | ATTACATGAAATATGCATACTCCTTTATGGAGAGACAGTGCGGAGTCACCTAGTGCAG | 26800 fluorescence intensity (a.u.)
42 | TCCCAGTTGAGTTGCACACGCACGCACGCCTCGCCACCCCCGGAGTCACCTAGTGCAG | 4220 fluorescence intensity (a.u.)
